Results as given in publication PMC9357003.
These are yes or no findings as the source states them, for the method shown. For some of these results: Binding seen in cells or lysates may run through a third protein. Some results given as binding are weak or reduced against the parent protein; the word gives no strength. For some of these results: Tags and fused reporters may be left off the sequences shown. Blank lines part the entries; values can stand above or below the molecule they belong to.

Protein sequences, listed by entry. Tags and fused reporters are not part of them.
UniProt P01106: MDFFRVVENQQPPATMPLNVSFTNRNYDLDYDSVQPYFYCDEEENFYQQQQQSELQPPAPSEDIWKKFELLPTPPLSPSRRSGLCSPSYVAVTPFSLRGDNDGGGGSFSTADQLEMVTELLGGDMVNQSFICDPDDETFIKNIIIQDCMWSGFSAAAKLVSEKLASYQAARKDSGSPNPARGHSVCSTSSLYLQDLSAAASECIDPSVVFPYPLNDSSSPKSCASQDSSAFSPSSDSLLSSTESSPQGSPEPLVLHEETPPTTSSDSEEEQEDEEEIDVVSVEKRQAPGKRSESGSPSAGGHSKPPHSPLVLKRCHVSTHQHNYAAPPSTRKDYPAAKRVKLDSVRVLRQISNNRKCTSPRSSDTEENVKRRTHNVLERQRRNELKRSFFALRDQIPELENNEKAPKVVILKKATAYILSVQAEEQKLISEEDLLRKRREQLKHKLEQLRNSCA
UniProt Q99496: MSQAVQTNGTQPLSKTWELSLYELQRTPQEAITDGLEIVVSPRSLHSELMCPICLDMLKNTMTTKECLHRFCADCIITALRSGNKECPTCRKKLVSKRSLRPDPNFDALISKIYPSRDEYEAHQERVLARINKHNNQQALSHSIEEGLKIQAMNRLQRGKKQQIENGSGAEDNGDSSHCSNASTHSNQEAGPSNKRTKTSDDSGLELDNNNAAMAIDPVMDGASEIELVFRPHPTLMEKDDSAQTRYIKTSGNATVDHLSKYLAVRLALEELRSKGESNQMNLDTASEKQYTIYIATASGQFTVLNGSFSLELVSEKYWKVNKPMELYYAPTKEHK

Legend:
[1] = target: T1, tagged PCGF6 (293T transfection) (UniProt Q9BYE7); assay: co-IP; 293T cells transfected with tagged PCGF6 and tagged MYC; lysate
T1 sequence: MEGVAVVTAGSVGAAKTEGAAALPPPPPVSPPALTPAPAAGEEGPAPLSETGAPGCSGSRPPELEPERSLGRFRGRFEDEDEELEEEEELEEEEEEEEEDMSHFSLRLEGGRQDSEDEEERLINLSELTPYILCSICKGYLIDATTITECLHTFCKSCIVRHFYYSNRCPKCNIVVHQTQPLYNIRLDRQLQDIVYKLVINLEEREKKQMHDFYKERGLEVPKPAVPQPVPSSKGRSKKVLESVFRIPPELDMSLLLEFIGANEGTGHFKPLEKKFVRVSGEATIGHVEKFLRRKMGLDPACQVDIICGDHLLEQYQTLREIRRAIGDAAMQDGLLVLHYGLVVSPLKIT

[2] = target: T2, Polycomb group ring finger 6 (PCGF6) (human (endogenous in human PSCs)) (UniProt Q9BYE7); assay: co-IP; endogenous PCGF6 and MYC, human PSC lysate, anti-PCGF6 or anti-MYC antibody, Protein A/G Dynabeads, 4 °C; rabbit IgG as control; western blot
T2 sequence: T1 sequence

[3] = target: MYC (human (endogenous in human PSCs)) (UniProt P01106); assay: as above
[4] = target: GST-MYC (UniProt P01106); assay: pull-down; GST-MYC (20 μg) on Glutathione Sepharose 4B, incubated with purified His-PCGF6 (20 μg) for at least 4 h at 4 °C; beads washed five times; western blot; both purified
[5] = target: tagged MYC (293T transfection) (UniProt P01106); assay: co-IP; 293T cells transfected with tagged PCGF6 and tagged MYC; lysate
[6] = target: RING1B (human (endogenous in human PSCs)) (UniProt Q99496); assay: co-IP; endogenous proteins, PCGF6-KO human PSC lysate, anti-RING1B antibody, Protein A/G Dynabeads, 4 °C; washed with RIPA and wash buffer (500 mM NaCl); western blot
[7] = target: RING1B (human (endogenous in human PSCs)) (UniProt Q99496); assay: co-IP; endogenous proteins, wild-type human PSC lysate, anti-RING1B antibody, Protein A/G Dynabeads, 4 °C; washed with RIPA and wash buffer (20 mM Tris-HCl, 500 mM NaCl, 2 mM EDTA, 1% Triton X-100, 0.1% SDS, pH 8.0); western blot

Molecule: MYC (from UniProt P01106 1-454)
binding [2]: binds

B2: His-PCGF6 (protein, UniProt Q9BYE7 1-350)
chain: T1 sequence
binding [4]: binds

B3: tagged PCGF6 (293T transfection) (protein, UniProt Q9BYE7 1-350)
chain: T1 sequence
binding [5]: binds

The remaining lines, values ahead:

binding [1]: binds
Molecule: tagged MYC (293T transfection) (from UniProt P01106 1-454)

binding [3]: binds
B1: Polycomb group ring finger 6 (PCGF6) (protein, UniProt Q9BYE7 1-350)
chain: T1 sequence

binding [6]: binds
binding [7]: binds
B4: RYBP (protein, UniProt Q8N488 1-228)
chain: MTMGDKKSPTRPKRQAKPAADEGFWDCSVCTFRNSAEAFKCSICDVRKGTSTRKPRINSQLVAQQVAQQYATPPPPKKEKKEKVEKQDKEKPEKDKEISPSVTKKNTNKKTKPKSDILKDPPSEANSIQSANATTKTSETNHTSRPRLKNVDRSTAQQLAVTVGNVTVIITDFKEKTRSSSTSSSTVTSSAGSEQQNQSSSGSESTDKGSSRSSTPKGDMSAVNDESF
